{"source": "patent US20140348958A1", "about": "“Anticancer Active Ingredient From Guiera Senegalensis” (UNIVERSITE D'AUVERGNE CLERMONT I, priority 2011, published 2014)", "test_system": "mammary cancer cells MCF-7", "test": "Proliferation measurement of mammary cancer cells MCF-7 (resazurin, 72 hrs exposure)", "assay_type": "cell-based", "conditions": "Homo sapiens", "description": "Detailed Procedure of the Proliferation Measurement of Mammary Cancer Cells MCF-7\n1st Part Day 1: Sowing the Cells\n1. Preparation of the Medium:\n• Preparation of the volume to be put into the plates:\nIn a 50 mL Falcon, prepare 30 mL of complete RPMI with 10% FCS and 1% Glutamine: 27 mL of RPMI: 3 mL of FCS and 300 μL of Glutamine.\n2. Preparation of the Cell Suspension:\n• Suck up the medium contained in the flask with the vacuum pump • Rinse with 3 mL of PBS and suck up with the vacuum pump • Add 1 mL of trypsin and let it act for 3 mins in the oven at 37° C. in order to detach the cells. • When the cells are detached, add 2 mL of complete medium prepared previously for inactivating the trypsin. • Mix well the suspension by suction-discharge and transfer into a well-defined Falcon 15. • Count the cells in a Malassez cell: carry out dilution to one 20th for counting them with Trypan blue.\n• Sow the plates with 200 μL of cell suspension according to the determined scheme • Put 200 μL of water in the peripheral wells • Leave for incubation for 24 hours.\n2nd Part: Day 2, the Extract is Exposed\n4. Preparation of the Medium:\nA total of 45 mL of medium to be prepared in a Falcon 50 sterilized i.e. 40.5 mL of RPMI+4.5 mL of FCS+450 μL of glutamine\n5. Preparation of the Extracts:\n• prepare a 10 mg/mL solution: • Dissolve 8.1 mg of crude extract (noted as SF) according to Example 1, of the SF 5 fraction according to Example 2 or of the KP-18^E fraction (Guieranone B) in 810 μL of DMSO • Prepare the mother solution of extract (Ex) at 100 μg/mL i.e. 50 μL of (10 mg/ml) in 4,950 μL of RPMI • Produce the range of extracts (for 1 extract and only 1 range). • Remove the medium in the plates and add 200 μL per well of an extract range (one column per concentration). • Incubate the plates in the oven at 37° C. for 72 hrs.\n6. Prepare Resazurin (Developer) and Read the Plate to\n2 columns of cells+one column of resazurin alone=3 columns\n200 μL/well×3 columns×6 lines=3,600 μL (total volume to be prepared: 5 mL) • Prepare 4.9 mL of medium+100 μL resazurin\nRemove the medium and add 200 μL of (medium+resazurin) per well. • Incubate for 2 hours and read with fluorskan. 3rd Part: Measurement of Proliferation at 24 Hours (for t0), 72 Hrs for Extract • For the extract at 72 hrs:\n200 μL/well×18 columns×6 lines (total volume to be prepared: 25 mL) • Prepare 24.5 mL of RPMI+500 μL of resazurin • Remove the medium and add 200 μL of (medium+resazurin) per well. • After 2 hours, readout with fluorskan.\nThe procedure described in Example 5 was used by replacing Guieranone B with tamoxifene or 5-FU (5-Fluorouracil). By following this procedure, it was possible to measure the CI50s of these compounds and of comparing them with that of Guieranone B.", "note": "Like-named read-outs stand apart in the source and are kept apart here."}
{"smiles": "CC/C(=C(\\c1ccccc1)c1ccc(OCCN(C)C)cc1)c1ccccc1", "note": "[Tamoxifene, reference compound]", "values": [{"measurement": "IC50", "setting": "MCF7, MCF-7 mammary cancer cell line, same conditions (Table 2), read-out: Average Cl50 in μM", "value": "11.9 ± 0.93", "unit": "µM"}, {"measurement": "IC50", "setting": "MCF7, MCF-7 mammary cancer cell line, same conditions (Table 2), read-out: Average Cl50 in μg/mL", "value": "4.42 ± 0.34", "unit": "µg/mL"}, {"measurement": "IC50", "setting": "MCF7, mammary cancer line MCF-7, same conditions (Table 15, identical with Table 2), read-out: Average CI50 in μM", "value": "11.9 ± 0.93", "unit": "µM"}, {"measurement": "IC50", "setting": "MCF7, mammary cancer line MCF-7, same conditions (Table 15, identical with Table 2), read-out: Average CI50 in μg/mL", "value": "4.42 ± 0.34", "unit": "µg/mL"}]}
